Data published in the supplement of paper PMC7661543.
± gives the standard deviation of the averaged measurements. The effect of the compound repeats well; differences between the knockouts mostly do not.

System: ZR-75-1
Experiment: relative cell number vs DMSO control (72 h) (% of DMSO); higher = less growth inhibition (more cells)
Protocol: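 QMAP-Seq: a pool of 5 breast cancer cell lines (ZR-75-1, SKBR3, HCC-38, MDA-MB-231, BT-20), each carrying 12 doxycycline-inducible Cas9 sgRNA perturbations (11 knockouts plus non-targeting sgNT), was treated with compounds for 72 h at four 10-fold doses (10 nM-10 uM or 1 nM-1 uM range). Barcodes were amplified and sequenced, and cell number was interpolated from 293T spike-in standard curves. The result is expressed as % of the median of DMSO wells. Two biological replicates.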

[1] = sgRNA knockout: sgATF3, 1000 nM
[2] = sgRNA knockout: sgATF3, 10000 nM
[3] = sgRNA knockout: sgATF4, 1000 nM
[4] = sgRNA knockout: sgATF4, 10000 nM
[5] = sgRNA knockout: sgATF6, 1000 nM
[6] = sgRNA knockout: sgATF6, 10000 nM
[7] = sgRNA knockout: sgATG7, 1000 nM
[8] = sgRNA knockout: sgATG7, 10000 nM
[9] = sgRNA knockout: sgERN1, 1000 nM
[10] = sgRNA knockout: sgERN1, 10000 nM
[11] = sgRNA knockout: sgHSF2, 1000 nM
[12] = sgRNA knockout: sgHSF2, 10000 nM
[13] = sgRNA knockout: sgNFE2L2, 10 nM
[14] = sgRNA knockout: sgNFE2L2, 100 nM
[15] = sgRNA knockout: sgNFE2L2, 1000 nM
[16] = sgRNA knockout: sgNFE2L2, 10000 nM
[17] = sgRNA knockout: sgSLC35F2, 10 nM
[18] = sgRNA knockout: sgSLC35F2, 100 nM
[19] = sgRNA knockout: sgSLC35F2, 1000 nM
[20] = sgRNA knockout: sgSLC35F2, 10000 nM
[21] = sgRNA knockout: sgXBP1, 1000 nM
[22] = sgRNA knockout: sgXBP1, 10000 nM

Row | SMILES | relative cell number (sgRNA knockout: sgATF3, 10 nM) | relative cell number (sgRNA knockout: sgATF3, 100 nM) | relative cell number [1] | relative cell number [2] | relative cell number (sgRNA knockout: sgATF4, 10 nM) | relative cell number (sgRNA knockout: sgATF4, 100 nM) | relative cell number [3] | relative cell number [4] | relative cell number (sgRNA knockout: sgATF6, 10 nM) | relative cell number (sgRNA knockout: sgATF6, 100 nM) | relative cell number [5] | relative cell number [6] | relative cell number (sgRNA knockout: sgATG7, 10 nM) | relative cell number (sgRNA knockout: sgATG7, 100 nM) | relative cell number [7] | relative cell number [8] | relative cell number (sgRNA knockout: sgERN1, 10 nM) | relative cell number (sgRNA knockout: sgERN1, 100 nM) | relative cell number [9] | relative cell number [10] | relative cell number (sgRNA knockout: sgHSF2, 10 nM) | relative cell number (sgRNA knockout: sgHSF2, 100 nM) | relative cell number [11] | relative cell number [12] | relative cell number [13] | relative cell number [14] | relative cell number [15] | relative cell number [16] | relative cell number [17] | relative cell number [18] | relative cell number [19] | relative cell number [20] | relative cell number (sgRNA knockout: sgXBP1, 10 nM) | relative cell number (sgRNA knockout: sgXBP1, 100 nM) | relative cell number [21] | relative cell number [22]
1 | Cc1cc2c(C(C)C)c(O)c(O)c(C=O)c2c(O)c1-c1c(C)cc2c(C(C)C)c(O)c(O)c(C=O)c2c1O [Gossypol] | 102 ± 32 | 89.3 ± 19 | 76.3 ± 2.4 | 33.7 ± 4.7 | 101 ± 1.2 | 110 ± 16 | 135 ± 57 | 37.2 ± 14 | 115 ± 62 | 62.4 ± 11 | 127 ± 12 | 32.1 ± 3.2 | 92.9 ± 20 | 105 ± 19 | 127.2 ± 0.67 | 27.4 ± 0.95 | 97.6 ± 2.8 | 99.55 ± 0.16 | 109 ± 21 | 37.4 ± 16 | 104 ± 7 | 93.4 ± 4.5 | 108 ± 23 | 34.6 ± 2.5 | 113 ± 32 | 86.7 ± 8.2 | 130 ± 31 | 32.8 ± 11 | 112 ± 62 | 131 ± 66 | 77.6 ± 33 | 46.6 ± 9.8 | 119 ± 24 | 91.5 ± 5.7 | 115 ± 6 | 32.8 ± 1
2 | COc1cc2c(cc1-c1c(C)noc1C)ncc1[nH]c(=O)n([C@H](C)c3ccccn3)c12 [IBET151] | 115 ± 3.1 | 99.6 ± 20 | 52.4 ± 1.4 | 32.7 ± 4.3 | 135 ± 29 | 108 ± 2.8 | 64.3 ± 9.3 | 40.7 ± 23 | 107 ± 23 | 135 ± 56 | 37 ± 1.9 | 27 ± 0.49 | 79.3 ± 14 | 89.8 ± 22 | 64.5 ± 16 | 35.4 ± 11 | 85.2 ± 28 | 72 ± 1.4 | 64.4 ± 6.7 | 41.5 ± 2.7 | 101 ± 2.2 | 90.7 ± 7.5 | 50.1 ± 0.83 | 33.6 ± 2.2 | 103 ± 42 | 87 ± 6.8 | 59.6 ± 17 | 42 ± 0.67 | 85 ± 22 | 97.9 ± 33 | 58.9 ± 14 | 56.3 ± 25 | 97.3 ± 30 | 82.5 ± 24 | 51.4 ± 3.9 | 29.7 ± 7.5
3 | O=C(/C=C/c1ccc(O)cc1)c1ccc(O)cc1O [Isoliquiritigenin] | 104 ± 13 | 106 ± 38 | 108 ± 24 | 84.5 ± 13 | 86.1 ± 8.4 | 118 ± 69 | 100 ± 6.8 | 108 ± 19 | 97 ± 24 | 83.5 ± 9.5 | 88.9 ± 23 | 102 ± 23 | 124 ± 30 | 81 ± 2.3 | 116 ± 25 | 96.5 ± 13 | 84.7 ± 7 | 91.5 ± 14 | 89.2 ± 15 | 106 ± 14 | 110 ± 4.3 | 108 ± 40 | 95 ± 11 | 96.7 ± 31 | 131 ± 7.9 | 117 ± 11 | 79.3 ± 3.2 | 106 ± 6.7 | 102 ± 25 | 110 ± 36 | 92.4 ± 18 | 110 ± 15 | 106 ± 21 | 102 ± 7.3 | 90.6 ± 7.1 | 96.7 ± 11
4 | COc1cc2nccc(Oc3ccc(NC(=O)NC4CC4)c(Cl)c3)c2cc1C(N)=O [Lenvatinib] | 122 ± 16 | 92.6 ± 4.5 | 112 ± 10 | 74.1 ± 1.5 | 153 ± 29 | 118 ± 1.9 | 116 ± 13 | 83.2 ± 5.9 | 96.9 ± 6 | 110 ± 31 | 103 ± 26 | 71.9 ± 9.7 | 98.2 ± 13 | 100 ± 27 | 91.4 ± 4.4 | 84.5 ± 1.7 | 117 ± 29 | 126.1 ± 0.24 | 132 ± 30 | 80.4 ± 15 | 96.4 ± 4.9 | 94.1 ± 34 | 117 ± 17 | 87.1 ± 22 | 108 ± 3.5 | 117 ± 42 | 121 ± 16 | 88.1 ± 22 | 96.7 ± 36 | 79.2 ± 7.6 | 83.2 ± 25 | 72.8 ± 2.5 | 112 ± 4.8 | 104 ± 34 | 111 ± 13 | 83.1 ± 30
